{"source": "PubChem BioAssay AID1259254 (NCATS, 2017)", "aim": "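Gene knock-downs that lead to re-replication, shown by excess G2 DNA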 (primary screen)", "cells": "human HCT116 colorectal cancer cells", "knock-down reagent": "single siRNA against human genes", "duration": "3 days", "detection": "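Nuclei stained with Hoechst and imaged; cell-cycle phase assigned by DNA content; G2 share scaled per plate, non-targeting siRNA 0%, GMNN siRNA 100%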", "reading the numbers": "G2 robust z-score and G2 cells, % of GMNN control: higher = more G2 cells, more excess DNA replication", "active means": "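An siRNA counts as active if its G2 robust z-score lies at least 5 MADs above the screen median; here such calls match roughly 38% of GMNN control or more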", "note": "Shown is one part, drawn at random, of about 59,000 deposited reagents. In the full data, about 1,550 (2.6%) got an active call. 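G2 share is only a proxy for re-replication; each gene was hit by three separate siRNAs, and active genes were retested.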 Not all columns of the deposit are shown. Not stated in the record: the amount of reagent."}
{"Gene":"TBC1D32 (GeneID 221322)","PubChem SID":"SID160761655","G2 robust z-score":-0.519,"G2 cells, % of GMNN control":-0.687,"Outcome":"inactive"}
{"Gene":"TBC1D32 (GeneID 221322)","PubChem SID":"SID160761656","G2 robust z-score":-1.12,"G2 cells, % of GMNN control":-4.91,"Outcome":"inactive"}
{"Gene":"TBC1D32 (GeneID 221322)","PubChem SID":"SID160761657","G2 robust z-score":-0.542,"G2 cells, % of GMNN control":-0.849,"Outcome":"inactive"}
{"Gene":"RBM14 (GeneID 10432)","PubChem SID":"SID160728408","G2 robust z-score":-0.992,"G2 cells, % of GMNN control":-4.01,"Outcome":"inactive"}
{"Gene":"RBM14 (GeneID 10432)","PubChem SID":"SID160728409","G2 robust z-score":-0.212,"G2 cells, % of GMNN control":1.47,"Outcome":"inactive"}
{"Gene":"RBM14 (GeneID 10432)","PubChem SID":"SID160728410","G2 robust z-score":-0.248,"G2 cells, % of GMNN control":1.23,"Outcome":"inactive"}
{"Gene":"TNPO2 (GeneID 30000)","PubChem SID":"SID160731052","G2 robust z-score":-0.761,"G2 cells, % of GMNN control":-2.39,"Outcome":"inactive"}
{"Gene":"TNPO2 (GeneID 30000)","PubChem SID":"SID160739477","G2 robust z-score":0.388,"G2 cells, % of GMNN control":5.7,"Outcome":"inactive"}
{"Gene":"TNPO2 (GeneID 30000)","PubChem SID":"SID160739478","G2 robust z-score":-0.594,"G2 cells, % of GMNN control":-1.21,"Outcome":"inactive"}
{"Gene":"SLC35A4 (GeneID 113829)","PubChem SID":"SID160754881","G2 robust z-score":0.124,"G2 cells, % of GMNN control":3.84,"Outcome":"inactive"}
{"Gene":"SLC35A4 (GeneID 113829)","PubChem SID":"SID160754882","G2 robust z-score":0.286,"G2 cells, % of GMNN control":4.98,"Outcome":"inactive"}
{"Gene":"SLC35A4 (GeneID 113829)","PubChem SID":"SID160754883","G2 robust z-score":-0.376,"G2 cells, % of GMNN control":0.324,"Outcome":"inactive"}
{"Gene":"DAG1 (GeneID 1605)","PubChem SID":"SID160752333","G2 robust z-score":2.75,"G2 cells, % of GMNN control":22.3,"Outcome":"inactive"}
{"Gene":"DAG1 (GeneID 1605)","PubChem SID":"SID160752343","G2 robust z-score":-0.235,"G2 cells, % of GMNN control":1.32,"Outcome":"inactive"}
{"Gene":"DAG1 (GeneID 1605)","PubChem SID":"SID160752355","G2 robust z-score":7.65,"G2 cells, % of GMNN control":56.8,"Outcome":"active"}
{"Gene":"BMPR1B (GeneID 658)","PubChem SID":"SID160728412","G2 robust z-score":-1.08,"G2 cells, % of GMNN control":-4.67,"Outcome":"inactive"}
{"Gene":"BMPR1B (GeneID 658)","PubChem SID":"SID160728422","G2 robust z-score":-1.13,"G2 cells, % of GMNN control":-4.95,"Outcome":"inactive"}
{"Gene":"BMPR1B (GeneID 658)","PubChem SID":"SID160728433","G2 robust z-score":-0.681,"G2 cells, % of GMNN control":-1.82,"Outcome":"inactive"}
{"Gene":"NMT1 (GeneID 4836)","PubChem SID":"SID160778115","G2 robust z-score":-0.00545,"G2 cells, % of GMNN control":2.93,"Outcome":"inactive"}
{"Gene":"NMT1 (GeneID 4836)","PubChem SID":"SID160778116","G2 robust z-score":0.068,"G2 cells, % of GMNN control":3.45,"Outcome":"inactive"}
{"Gene":"NMT1 (GeneID 4836)","PubChem SID":"SID160778117","G2 robust z-score":-0.275,"G2 cells, % of GMNN control":1.03,"Outcome":"inactive"}
{"Gene":"LINC01896 (GeneID 645321)","PubChem SID":"SID160769516","G2 robust z-score":1.08,"G2 cells, % of GMNN control":10.6,"Outcome":"inactive"}
{"Gene":"LINC01896 (GeneID 645321)","PubChem SID":"SID160769517","G2 robust z-score":3.62,"G2 cells, % of GMNN control":28.4,"Outcome":"inactive"}
{"Gene":"LINC01896 (GeneID 645321)","PubChem SID":"SID160769518","G2 robust z-score":-0.152,"G2 cells, % of GMNN control":1.9,"Outcome":"inactive"}

A portion from the list above, as a working copy:
{"Gene":"SLC35A4 (GeneID 113829)","PubChem SID":"SID160754881","G2 robust z-score":0.124,"G2 cells, % of GMNN control":3.84,"Outcome":"inactive"}
{"Gene":"SLC35A4 (GeneID 113829)","PubChem SID":"SID160754882","G2 robust z-score":0.286,"G2 cells, % of GMNN control":4.98,"Outcome":"inactive"}
{"Gene":"SLC35A4 (GeneID 113829)","PubChem SID":"SID160754883","G2 robust z-score":-0.376,"G2 cells, % of GMNN control":0.324,"Outcome":"inactive"}
{"Gene":"DAG1 (GeneID 1605)","PubChem SID":"SID160752333","G2 robust z-score":2.75,"G2 cells, % of GMNN control":22.3,"Outcome":"inactive"}
